These are yes or no findings as the source states them, for the method shown. Some results given as binding are weak or reduced against the parent protein; the word gives no strength.

Assay [1] deals with human heat shock transcription factor Hsf1, wild type (human) (UniProt Q00613). As to the kind of experiment: condition: only monomeric SEC fraction without heat shock; native gel or EMSA; blue native polyacrylamide gel; monomeric SEC fraction of Hsf1 without heat shock (0°C control); both purified. A general note: Mobility shift assays separate free from complexed probe on a gel.

The target in assay [2] is T1, human heat shock transcription factor Hsf1, wild type (human), Q00613.
T1 chain: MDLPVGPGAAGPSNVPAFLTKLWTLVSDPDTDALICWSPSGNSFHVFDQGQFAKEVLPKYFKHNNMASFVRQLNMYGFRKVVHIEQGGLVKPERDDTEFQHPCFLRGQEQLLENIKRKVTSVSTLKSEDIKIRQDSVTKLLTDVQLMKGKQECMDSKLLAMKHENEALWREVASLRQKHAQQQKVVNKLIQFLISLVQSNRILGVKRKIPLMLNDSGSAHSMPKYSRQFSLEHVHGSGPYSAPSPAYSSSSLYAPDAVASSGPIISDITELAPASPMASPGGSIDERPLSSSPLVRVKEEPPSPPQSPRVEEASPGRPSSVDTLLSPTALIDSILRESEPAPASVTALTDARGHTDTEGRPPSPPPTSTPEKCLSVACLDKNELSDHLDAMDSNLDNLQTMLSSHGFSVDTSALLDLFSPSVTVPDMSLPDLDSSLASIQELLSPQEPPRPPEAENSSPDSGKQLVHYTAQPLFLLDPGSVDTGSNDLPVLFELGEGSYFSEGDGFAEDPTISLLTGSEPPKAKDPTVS
Kind of assay: HDX-MS; 5 µM Hsf1 or mutant in Hsf1-buffer pre-incubated 10 or 30 min at 20-42°C, diluted 1:20 into D2O buffer, 30 s at 20°C, quenched, online pepsin, LC-MS; both purified. Particulars: remark: other sources report otherwise.

“human heat shock transcription factor Hsf1, wild type (from UniProt Q00613 1-529)”: in assay [1], the binding result was “no binding”.

B1: human heat shock transcription factor Hsf1, wild type, Q00613 1-529 (natural protein)
chain: T1 chain
In the case of B1, the binding result in assay [2] was “binds”.

Source of the values: paper PMC4775227, “Molecular mechanism of thermosensory function of human heat shock transcription factor Hsf1” (eLife, 2016).
